In the test the target is 1M3U self-assembling mutant (D157L/E158L/D161L) fused to YFP Venus (UniProt P31057). Nature of the test: affinity purification with mass spectrometry.

Chains of the proteins cited; added tags and fusions are not shown. Lines headed by an entry give the natural chain unless they say otherwise; changes in a name come on top.
UniProt P31057: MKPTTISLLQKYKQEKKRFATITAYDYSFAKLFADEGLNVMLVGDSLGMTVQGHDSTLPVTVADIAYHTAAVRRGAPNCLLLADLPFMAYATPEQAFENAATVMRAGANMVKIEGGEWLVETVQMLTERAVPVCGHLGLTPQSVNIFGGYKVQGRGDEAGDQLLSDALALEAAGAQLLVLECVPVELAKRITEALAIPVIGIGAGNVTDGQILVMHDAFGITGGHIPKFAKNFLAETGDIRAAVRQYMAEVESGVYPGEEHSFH

These are yes or no findings as the source states them, for the method shown. Binding seen in cells or lysates may run through a third protein. Here binding means that the protein was enriched with, or labelled near, the bait; the list need not be complete.

B1: ASP1, cytosolic L-asparaginase (protein, UniProt P38986 1-381)
chain: MKSDSVEITTICPDVENSQFVVQSNCPETIPEILKSQNAAVNGSGIACQQRSLPRIKILGTGGTIASKAIDSSQTAGYHVDLTIQDLLDAIPDISKVCDIEYEQLCNVDSKDINEDILYKIYKGVSESLQAFDGIVITHGTDTLSETAFFIESTIDAGDVPIVFVGSMRPSTSVSADGPMNLYQAICIASNPKSRGRGVLVSLNDQISSGYYITKTNANSLDSFNVRQGYLGNFVNNEIHYYYPPVKPQGCHKFKLRVDGKHFKLPEVCILYAHQAFPPAIVNLVADKYDGIVLATMGAGSLPEEVNETCMKLSLPIVYSKRSMDGMVPIANVPKKGSKEDNLIASGYLSPEKSRILLQLCLAGNYTLEEIKHVFTGVYGG
As to B1, the binding result is “binds”.

The values above are taken from article doi:10.1101/2024.09.13.612878.
